# Measurements: publication PMC3486646
# Sequences of proteins named here, by UniProt entry; tags and fusion partners are left off. Residues count along the entry.
# UniProt O95793, residues 82-577: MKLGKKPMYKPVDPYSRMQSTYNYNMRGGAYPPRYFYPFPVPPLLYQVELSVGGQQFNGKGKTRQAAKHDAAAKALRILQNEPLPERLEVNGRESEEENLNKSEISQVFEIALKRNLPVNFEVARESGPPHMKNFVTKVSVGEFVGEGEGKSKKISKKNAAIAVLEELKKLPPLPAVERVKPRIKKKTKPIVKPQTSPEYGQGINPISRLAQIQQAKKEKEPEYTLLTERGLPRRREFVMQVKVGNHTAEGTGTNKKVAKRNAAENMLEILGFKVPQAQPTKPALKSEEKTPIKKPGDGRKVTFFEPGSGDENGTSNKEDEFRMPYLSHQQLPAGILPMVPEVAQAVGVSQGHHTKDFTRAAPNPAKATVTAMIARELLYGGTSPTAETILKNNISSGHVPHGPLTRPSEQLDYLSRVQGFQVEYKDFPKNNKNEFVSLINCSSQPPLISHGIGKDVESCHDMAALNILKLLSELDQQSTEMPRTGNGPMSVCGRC
# No constants are given. Whether binding was seen depends on the method and setting. In cells and extracts the contact can be indirect. A yes stands for co-enrichment or nearness to the bait. Other partners may have been found. Sequences can lack the tags named with a protein.
# B1: Pre-mRNA 3′-end-processing factor FIP1 (protein, UniProt Q6UN15 1-594)
# chain: MSAGEVERLVSELSGGTGGDEEEEWLYGGPWDVHVHSDLAKDLDENEVERPEEENASANPPSGIEDETAENGVPKPKVTETEDDSDSDSDDDEDDVHVTIGDIKTGAPQYGSYGTAPVNLNIKTGGRVYGTTGTKVKGVDLDAPGSINGVPLLEVDLDSFEDKPWRKPGADLSDYFNYGFNEDTWKAYCEKQKRIRMGLEVIPVTSTTNKITAEDCTMEVTPGAEIQDGRFNLFKVQQGRTGNSEKETALPSTKAEFTSPPSLFKTGLPPSRNSTSSQSQTSTASRKANSSVGKWQDRYGRAESPDLRRLPGAIDVIGQTITISRVEGRRRANENSNIQVLSERSATEVDNNFSKPPPFFPPGAPPTHLPPPPFLPPPPTVSTAPPLIPPPGFPPPPGAPPPSLIPTIESGHSSGYDSRSARAFPYGNVAFPHLPGSAPSWPSLVDTSKQWDYYARREKDRDRERDRDRERDRDRDRERERTRERERERDHSPTPSVFNSDEERYRYREYAERGYERHRASREKEERHRERRHREKEETRHKSSRSNSRRRHESEEGDSHRRHKHKKSKRSKEGKEAGSEPAPEQESTEATPAE
# B2: Probable ATP-dependent RNA helicase (DDX27) (protein, UniProt Q96GQ7 1-765)
# chain: MLADLGLIGTIGEDDEVPVEPESDSGDEEEEGPIVLGRRQKALGKNRSADFNPDFVFTEKEGTYDGSWALADVMSQLKKKRAATTLDEKIEKVRKKRKTEDKEAKSGKLEKEKEAKEGSEPKEQEDLQENDEEGSEDEASETDYSSADENILTKADTLKVKDRKKKKKKGQEAGGFFEDASQYDENLSFQDMNLSRPLLKAITAMGFKQPTPIQKACIPVGLLGKDICACAATGTGKTAAFALPVLERLIYKPRQAPVTRVLVLVPTRELGIQVHSVTRQLAQFCNITTCLAVGGLDVKSQEAALRAAPDILIATPGRLIDHLHNCPSFHLSSIEVLILDEADRMLDEYFEEQMKEIIRMCSHHRQTMLFSATMTDEVKDLASVSLKNPVRIFVNSNTDVAPFLRQEFIRIRPNREGDREAIVAALLTRTFTDHVMLFTQTKKQAHRMHILLGLMGLQVGELHGNLSQTQRLEALRRFKDEQIDILVATDVAARGLDIEGVKTVINFTMPNTIKHYVHRVGRTARAGRAGRSVSLVGEDERKMLKEIVKAAKAPVKARILPQDVILKFRDKIEKMEKDVYAVLQLEAEEKEMQQSEAQINTAKRLLEKGKEAVVQEPERSWFQTKEERKKEKIAKALQEFDLALRGKKKRKKFMKDAKKKGEMTAEERSQFEILKAQMFAERLAKRNRRAKRARAMPEEEPVRGPAKKQKQGKKSVFDEELTNTSKKALKQYRAGPSFEERKQLGLPHQRRGGNFKSKSRYKRRK
# B3: Protein tyrosine phosphatase-like protein (PTPLAD1) (protein, UniProt Q9P035 1-362)
# chain: MENQVLTPHVYWAQRHRELYLRVELSDVQNPAISITENVLHFKAQGHGAKGDNVYEFHLEFLDLVKPEPVYKLTQRQVNITVQKKVSQWWERLTKQEKRPLFLAPDFDRWLDESDAEMELRAKEEERLNKLRLESEGSPETLTNLRKGYLFMYNLVQFLGFSWIFVNLTVRFCILGKESFYDTFHTVADMMYFCQMLAVVETINAAIGVTTSPVLPSLIQLLGRNFILFIIFGTMEEMQNKAVVFFVFYLWSAIEIFRYSFYMLTCIDMDWKVLTWLRYTLWIPLYPLGCLAEAVSVIQSIPIFNETGRFSFTLPYPVKIKVRFSFFLQIYLIMIFLGLYINFRHLYKQRRRRYGQKKKKIH
# B4: Putative RNA-binding protein Luc7-like 2 (protein, UniProt Q9Y383 1-392)
# chain: MSAQAQMRAMLDQLMGTSRDGDTTRQRIKFSDDRVCKSHLLNCCPHDVLSGTRMDLGECLKVHDLALRADYEIASKEQDFFFELDAMDHLQSFIADCDRRTEVAKKRLAETQEEISAEVAAKAERVHELNEEIGKLLAKVEQLGAEGNVEESQKVMDEVEKARAKKREAEEVYRNSMPASSFQQQKLRVCEVCSAYLGLHDNDRRLADHFGGKLHLGFIEIREKLEELKRVVAEKQEKRNQERLKRREEREREEREKLRRSRSHSKNPKRSRSREHRRHRSRSMSRERKRRTRSKSREKRHRHRSRSSSRSRSRSHQRSRHSSRDRSRERSKRRSSKERFRDQDLASCDRDRSSRDRSPRDRDRKDKKRSYESANGRSEDRRSSEEREAGEI
# B5: Pyruvate dehydrogenase E1 component subunit beta (protein, UniProt P11177 31-359)
# chain: LQVTVRDAINQGMDEELERDEKVFLLGEEVAQYDGAYKVSRGLWKKYGDKRIIDTPISEMGFAGIAVGAAMAGLRPICEFMTFNFSMQAIDQVINSAAKTYYMSGGLQPVPIVFRGPNGASAGVAAQHSQCFAAWYGHCPGLKVVSPWNSEDAKGLIKSAIRDNNPVVVLENELMYGVPFEFPPEAQSKDFLIPIGKAKIERQGTHITVVSHSRPVGHCLEAAAVLSKEGVECEVINMRTIRPMDMETIEASVMKTNHLVTVEGGWPQFGVGAEICARIMEGPAFNFLDAPAVRVTGADVPMPYAKILEDNSIPQVKDIIFAIKKTLNI
# B6: Ribonucleoprotein PTB-binding 1 (protein, UniProt Q8IY67 1-606)
# chain: MAADVSVTHRPPLSPKSGAEVEAGDAAERRAPEEELPPLDPEEIRKRLEHTERQFRNRRKILIRGLPGDVTNQEVHDLLSDYELKYCFVDKYKGTAFVTLLNGEQAEAAINAFHQSRLRERELSVQLQPTDALLCVANLPPSLTQQQFEELVRPFGSLERCFLVYSERTGQSKGYGFAEYMKKDSAARAKSDLLGKPLGPRTLYVHWTDAGQLTPALLHSRCLCVDRLPPGFNDVDALCRALSAVHSPTFCQLACGQDGQLKGFAVLEYETAEMAEEAQQQADGLSLGGSHLRVSFCAPGPPGRSMLAALIAAQATALNRGKGLLPEPNILQLLNNLGPSASLQLLLNPLLHGSAGGKQGLLGAPPAMPLLNGPALSTALLQLALQTQGQKKPGILGDSPLGALQPGAQPANPLLGELPAGGGLPPELPPRRGKPPPLLPSVLGPAGGDREALGLGPPAAQLTPPPAPVGLRGSGLRGPLSHFYSGSPTSYFTSGLQAGLKQSHLSKAIGSSPLGSGEGLLGLSPGPNGHSHLLKVRAGGGDMQGWEAPAPQRPLTRPALPSVSRPHWAARNAALPTCCPRPSPAQKAAMWASTPRASAATTRTPT
# B7: Signal recognition particle receptor subunit beta (protein, UniProt Q9Y5M8 1-271)
# chain: MASADSRRVADGGGAGGTFQPYLDTLRQELQQTDPTLLSVVVAVLAVLLTLVFWKLIRSRRSSQRAVLLVGLCDSGKTLLFVRLLTGLYRDTQTSITDSCAVYRVNNNRGNSLTLIDLPGHESLRLQFLERFKSSARAIVFVVDSAAFQREVKDVAEFLYQVLIDSMGLKNTPSFLIACNKQDIAMAKSAKLIQQQLEKELNTLRVTRSAAPSTLDSSSTAPAQLGKKGKEFEFSQLPLKVEFLECSAKGGRGDVGSADIQDLEKWLAKIA
# B8: Splicing factor, arginine/serine-rich 4 (protein, UniProt Q08170 1-494)
# chain: MPRVYIGRLSYQARERDVERFFKGYGKILEVDLKNGYGFVEFDDLRDADDAVYELNGKDLCGERVIVEHARGPRRDGSYGSGRSGYGYRRSGRDKYGPPTRTEYRLIVENLSSRCSWQDLKDYMRQAGEVTYADAHKGRKNEGVIEFVSYSDMKRALEKLDGTEVNGRKIRLVEDKPGSRRRRSYSRSRSHSRSRSRSRHSRKSRSRSGSSKSSHSKSRSRSRSGSRSRSKSRSRSQSRSRSKKEKSRSPSKEKSRSRSHSAGKSRSKSKDQAEEKIQNNDNVGKPKSRSPSRHKSKSKSRSRSQERRVEEEKRGSVSRGRSQEKSLRQSRSRSRSKGGSRSRSRSRSKSKDKRKGRKRSREESRSRSRSRSKSERSRKRGSKRDSKAGSSKKKKKEDTDRSQSRSPSRSVSKEREHAKSESSQREGRGESENAGTNQETRSRSRSNSKSKPNLPSESRSRSKSASKTRSRSKSRSRSASRSPSRSRSRSHSRS
# B9: T-complex protein 1 subunit beta (protein, UniProt P78371 1-535)
# chain: MASLSLAPVNIFKAGADEERAETARLTSFIGAIAIGDLVKSTLGPKGMDKILLSSGRDASLMVTNDGATILKNIGVDNPAAKVLVDMSRVQDDEVGDGTTSVTVLAAELLREAESLIAKKIHPQTIIAGWREATKAAREALLSSAVDHGSDEVKFRQDLMNIAGTTLSSKLLTHHKDHFTKLAVEAVLRLKGSGNLEAIHIIKKLGGSLADSYLDEGFLLDKKIGVNQPKRIENAKILIANTGMDTDKIKIFGSRVRVDSTAKVAEIEHAEKEKMKEKVERILKHGINCFINRQLIYNYPEQLFGAAGVMAIEHADFAGVERLALVTGGEIASTFDHPELVKLGSCKLIEEVMIGEDKLIHFSGVALGEACTIVLRGATQQILDEAERSLHDALCVLAQTVKDSRTVYGGGCSEMLMAHAVTQLANRTPGKEAVAMESYAKALRMLPTIIADNAGYDSADLVAQLRAAHSEGNTTAGLDMREGTIGDMAILGITESFQVKRQVLLSAAEAAEVILRVDNIIKAAPRKRVPDHHPC
# B10: T-plastin polypeptide (plastin-3) (protein, UniProt P13797 1-630)
# chain: MDEMATTQISKDELDELKEAFAKVDLNSNGFICDYELHELFKEANMPLPGYKVREIIQKLMLDGDRNKDGKISFDEFVYIFQEVKSSDIAKTFRKAINRKEGICALGGTSELSSEGTQHSYSEEEKYAFVNWINKALENDPDCRHVIPMNPNTDDLFKAVGDGIVLCKMINLSVPDTIDERAINKKKLTPFIIQENLNLALNSASAIGCHVVNIGAEDLRAGKPHLVLGLLWQIIKIGLFADIELSRNEALAALLRDGETLEELMKLSPEELLLRWANFHLENSGWQKINNFSADIKDSKAYFHLLNQIAPKGQKEGEPRIDINMSGFNETDDLKRAESMLQQADKLGCRQFVTPADVVSGNPKLNLAFVANLFNKYPALTKPENQDIDWTLLEGETREERTFRNWMNSLGVNPHVNHLYADLQDALVILQLYERIKVPVDWSKVNKPPYPKLGANMKKLENCNYAVELGKHPAKFSLVGIGGQDLNDGNQTLTLALVWQLMRRYTLNVLEDLGDGQKANDDIIVNWVNRTLSEAGKSTSIQSFKDKTISSSLAVVDLIDAIQPGCINYDLVKSGNLTEDDKHNNAKYAVSMARRIGARVYALPEDLVEVKPKMVMTVFACLMGRGMKRV
# B11: nuclear factor associated with dsRNA, NFAR-1 90 kDa isoform (protein, UniProt Q12906-2 1-702)
# chain: MRPMRIFVNDDRHVMAKHSSVYPTQEELEAVQNMVSHTERALKAVSDWIDEQEKGSSEQAESDNMDVPPEDDSKEGAGEQKTEHMTRTLRGVMRVGLVAKGLLLKGDLDLELVLLCKEKPTTALLDKVADNLAIQLAAVTEDKYEILQSVDDAAIVIKNTKEPPLSLTIHLTSPVVREEMEKVLAGETLSVNDPPDVLDRQKCLAALASLRHAKWFQARANGLKSCVIVIRVLRDLCTRVPTWGPLRGWPLELLCEKSIGTANRPMGAGEALRRVLECLASGIVMPDGSGIYDPCEKEATDAIGHLDRQQREDITQSAQHALRLAAFGQLHKVLGMDPLPSKMPKKPKNENPVDYTVQIPPSTTYAITPMKRPMEEDGEEKSPSKKKKKIQKKEEKAEPPQAMNALMRLNQLKPGLQYKLVSQTGPVHAPIFTMSVEVDGNSFEASGPSKKTAKLHVAVKVLQDMGLPTGAEGRDSSKGEDSAEETEAKPAVVAPAPVVEAVSTPSAAFPSDATAEQGPILTKHGKNPVMELNEKRRGLKYELISETGGSHDKRFVMEVEVDGQKFQGAGSNKKVAKAYAALAALEKLFPDTPLALDANKKKRAPVPVRGGPKFAAKPHNPGFGMGGPMHNEVPPPPNLRGRGRGGSIRGRGRGRGFGGANHGGYMNAGAGYGSYGYGGNSATAGYSDFFTDCYGYHDFGSS
# Target: Staufen1-TAP (UniProt O95793)
# Test: affinity purification with mass spectrometry; tandem affinity purification of Staufen1-TAP from lysates of stable 293T cells, mock or pNL4-3 transfected; eluates on SDS-PAGE, 23 gel slices, in gel trypsin digestion, LC-MS/MS; FDR less than 1%
row,Binder,binding
1,B1,binds
2,B2,binds
3,B3,binds
4,B4,binds
5,B5,binds
6,B6,binds
7,B7,binds
8,B8,binds
9,B9,binds
10,B10,binds
11,B11,binds
